PubChem BioAssay AID1259424, University of Nebraska Medical Center, 2018
Assay: 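Rank knockdowns across the genome by resemblance to the KSR1 depletion profile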 (primary screen). Cells: human HCT116 colon cancer cells. Knock-down reagent: siRNA pool against human genes, 50 nM. Measurement: 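Log2 levels of six mRNAs (branched-DNA multiplex), adjusted by two reference genes and the non-targeting median, then scored against the average KSR1 knockdown pattern as Pearson r and euclidean distance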. Scale: mean correlation with KSR1 profile: higher = expression change more like KSR1 knockdown; mean distance from KSR1 profile: higher = expression change less like KSR1 knockdown.
Here is a random part of about 14,000 reagents tested. 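Higher correlation or smaller distance means closer resemblance to KSR1 loss; control wells, including KSR1 knockdowns, recur on many plates.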 Not all columns of the deposit are shown. No sequences are given here. Not given: the time to read-out.

GNAS
- mean correlation with KSR1 profile: 0.662
- mean distance from KSR1 profile: 1.52

PPM1F
- mean correlation with KSR1 profile: -0.598
- mean distance from KSR1 profile: 2.74

MKLN1
- mean correlation with KSR1 profile: 0.272
- mean distance from KSR1 profile: 1.15

ACTR2
- mean correlation with KSR1 profile: -0.0608
- mean distance from KSR1 profile: 2.44

CD38
- mean correlation with KSR1 profile: 0.569
- mean distance from KSR1 profile: 1.05

GPR32
- mean correlation with KSR1 profile: 0.378
- mean distance from KSR1 profile: 2.2

HNRNPD
- mean correlation with KSR1 profile: 0.782
- mean distance from KSR1 profile: 2.59

SMS
- mean correlation with KSR1 profile: -0.167
- mean distance from KSR1 profile: 1.74

CALU
- mean correlation with KSR1 profile: -0.707
- mean distance from KSR1 profile: 4.06

CSRNP2
- mean correlation with KSR1 profile: 0.803
- mean distance from KSR1 profile: 2.6

SEMA6D
- mean correlation with KSR1 profile: 0.622
- mean distance from KSR1 profile: 1.1

NDUFA2
- mean correlation with KSR1 profile: -0.0522
- mean distance from KSR1 profile: 2.56

RALGPS1
- mean correlation with KSR1 profile: -0.545
- mean distance from KSR1 profile: 1.79

WNT11
- mean correlation with KSR1 profile: -0.171
- mean distance from KSR1 profile: 1.63

BTD
- mean correlation with KSR1 profile: -0.348
- mean distance from KSR1 profile: 1.6

MT-ND1
- mean correlation with KSR1 profile: 0.65
- mean distance from KSR1 profile: 2

SHH
- mean correlation with KSR1 profile: 0.171
- mean distance from KSR1 profile: 3.01

DIAPH3
- mean correlation with KSR1 profile: -0.282
- mean distance from KSR1 profile: 2.1

FBN1
- mean correlation with KSR1 profile: 0.0723
- mean distance from KSR1 profile: 1.32

MAD2L1BP
- mean correlation with KSR1 profile: -0.0825
- mean distance from KSR1 profile: 1.77

SLC35C1
- mean correlation with KSR1 profile: 0.249
- mean distance from KSR1 profile: 1.3

ATP2C1
- mean correlation with KSR1 profile: -0.207
- mean distance from KSR1 profile: 2.4

POLR2D
- mean correlation with KSR1 profile: -0.334
- mean distance from KSR1 profile: 3.66

MUL1
- mean correlation with KSR1 profile: 0.675
- mean distance from KSR1 profile: 1.37

MRPS16
- mean correlation with KSR1 profile: -0.432
- mean distance from KSR1 profile: 7.25

PIP4P2
- mean correlation with KSR1 profile: -0.775
- mean distance from KSR1 profile: 1.76

RRAGC
- mean correlation with KSR1 profile: 0.454
- mean distance from KSR1 profile: 1.23

SLC19A2
- mean correlation with KSR1 profile: -0.0638
- mean distance from KSR1 profile: 1.77

4 successive records from above, for reference:
MAD2L1BP
- mean correlation with KSR1 profile: -0.0825
- mean distance from KSR1 profile: 1.77

SLC35C1
- mean correlation with KSR1 profile: 0.249
- mean distance from KSR1 profile: 1.3

ATP2C1
- mean correlation with KSR1 profile: -0.207
- mean distance from KSR1 profile: 2.4

POLR2D
- mean correlation with KSR1 profile: -0.334
- mean distance from KSR1 profile: 3.66
